Results on two compounds are retold here after patent US20090087389A1, “DEHYDROEPIAN[…] DIHYDRATE INHALATION COMPOSITIONS AND METHODS” ([…] PHARMACEUTICALS, LLC., priority 2002, published 2009).

The structures appear in SMILES notation.

Series [1] in a line: Emitted dose from dry powder inhalers (Nephele tube, HPLC). Particulars: jet-milled powder; Diskhaler; 60 L/min.
Series [2] is described as follows: Fine particle fraction, single-dose Acu-Breathe inhaler into Andersen impactor (stages 1-5). Particulars: neat micronized powder; flow rates 30 to 75 L/min; FIG. 1.

With `C[C@]12CC[C@H](OS(=O)(=O)[O-])CC1=CC[C@@H]1[C@@H]2CC[C@]2(C)C(=O)CC[C@@H]12.[Na+]` [Anhydrous DHEA-S], in series [1], the “Emitted Dose, Average” value turned out to be 53.4%.

Turning to `CC12CCC3C(CC=C4CC(OS(=O)(=O)[O-])CCC43C)C1CCC2=O.[Na+]` (centres unmarked) [DHEA-S dihydrate, dehydroepiandrosterone sodium sulfate dihydrate], the “fine particle fraction versus virtually anhydrous material” value in series [2] was “higher fine particle fraction”.
